Structures can show the parent of a compound that is named as a salt. For at least one compound, name, drawing or mass did not settle the structure.
System: livers
Assay: denitration rate in perfused rat livers relative to isosorbide-5-mononitrate (nitrate-like action)
Design: species or system rats
Details: rat livers perfused 4 min, equimolar 5×10^-5 M/l; freed NO2 in perfusate; high = fast denitration

Q: Which “Vrel (denitration rate in relation to isosorbide-5-mononitrate)” value does the source give for `CC(C)(CNC(=O)C(C)(C)CO[N+](=O)[O-])NCC(O)COc1cccc2[nH]c(=O)[nH]c12` (stereo not shown) [8 (7.), 1-(benzimidazolin-2-on-4-yloxy)-3-[1,1-dimethyl-2-(2,2-dimethyl-3-nitroxypropanoylamino)-ethylamino]-propan-2-ol fumarate] here?
A: 0,96

Reference: US4863949A, “Aminopropanol derivatives, processes for the preparation thereof, the use thereof and pharmaceutical compositions containing them” (Boehringer Mannheim GmbH, priority 1985, dated 1989)
